Several values for one entry are separate records, joined by “and”; a condition that tells them apart may be missing. Equal values may be shown once. Hit rate of the full screen: of about 400,000 compounds, about 3,700 (0.93%) were called active. Inconclusive results, whose numbers are uncertain, are shown with a selection of clear calls. Calls follow the shape of the dose curve; as a rule, active = well fitted inhibition curve with a large enough effect; inconclusive = small, poorly fitted or top-dose-only effect, or another doubt; inactive = no such curve, though single readings can be large or run the other way. A potency beside an inconclusive call is a rough fit, not a confirmed value. Where a structure was tested more than once in an assay, its records may differ in their call.
What follows are molecules tested against Vitamin D3 receptor (Homo sapiens) (UniProt P11473) (assay: Inhibitors of the vitamin D receptor (VDR): qHTS). Conditions: VDR-SRC2-3 peptide fluorescence polarization, 2 h; max response, negative = inhibition: stronger effect = lower value.
Outline: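 VDR–SRC2-3 interaction, FP format. Cmpds 23 nl via pintool, brief spin, 2 h ambient incubation.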
% is scaled to controls: 0 for no effect and ±100 for the full control effect; potency is read from the fitted curve at half-maximal effect.

By UniProt entry, the sequences of proteins in these tests, tags left out. Where a name states a change or a piece, a line headed by the entry shows the natural chain unless it says otherwise.
UniProt P11473: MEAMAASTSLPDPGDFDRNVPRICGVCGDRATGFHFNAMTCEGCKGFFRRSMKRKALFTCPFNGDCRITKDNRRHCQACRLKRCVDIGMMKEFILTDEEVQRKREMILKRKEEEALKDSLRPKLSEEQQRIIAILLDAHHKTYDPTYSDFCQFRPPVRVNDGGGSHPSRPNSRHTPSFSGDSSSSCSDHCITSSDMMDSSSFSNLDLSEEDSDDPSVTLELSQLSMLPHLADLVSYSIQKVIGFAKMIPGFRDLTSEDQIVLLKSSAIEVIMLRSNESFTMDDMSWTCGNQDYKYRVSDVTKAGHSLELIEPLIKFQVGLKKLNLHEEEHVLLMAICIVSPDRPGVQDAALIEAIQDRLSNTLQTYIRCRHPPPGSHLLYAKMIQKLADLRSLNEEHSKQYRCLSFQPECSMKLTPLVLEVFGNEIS

| SMILES | Potency | max response, negative = inhibition |
| --- | --- | --- |
| CCOC(=O)c1ccc(NC(=O)N2C[C@@H]3C[C@@H](C2)c2cccc(=O)n2C3)cc1 | inconclusive: 5.01 µM [inhibitor, full curve, poor fit] |  |
| C=CCN1C(=O)NC(=O)/C(=C/c2ccc(N(C)C)c(Br)c2)C1=O | active: 79.4 µM |  |
| CN1CC[C@@]2(C)c3cc(OC(=O)Nc4ccccc4)ccc3N(C)[C@@H]12 | inconclusive: 44.7 µM [inhibitor, partial curve] and inconclusive: 50.1 µM [inhibitor, partial curve, poor fit] |  |
| O=C(O)CCn1cc(C=C2C(=O)NC(=S)NC2=O)c(-c2cccc(Cl)c2)n1 | active: 25.1 µM |  |
| COc1ccc2nc(NC3=NCCN3)sc2c1 |  | inactive: 1.22% |
| Fc1ccccc1CNC1CN2CCC1CC2 (stereo unspecified) | inconclusive: 79.4 µM [inhibitor, partial curve, poor fit] |  |
| c1ccc(N2CCC3(CCNCC3)CC2)cc1 | inconclusive: 50.1 µM [inhibitor, partial curve] |  |
| COC(=O)C1=C(c2ccc(F)cc2OCc2ccccc2)C[C@@H]2CC[C@H]1N2C(=O)NCc1cccc(F)c1 | inconclusive: 63.1 µM [inhibitor, partial curve, poor fit] |  |
| COC(C(=O)C(O)C(C)O)C1Cc2cc3cc(OC4CC(OC5CC(O)C(OC)C(C)O5)C(OC(C)=O)C(C)O4)c(C)c(O)c3c(O)c2C(=O)C1OC1CC(OC2CC(OC3CC(C)(O)C(OC(C)=O)C(C)O3)C(O)C(C)O2)C(O)C(C)O1 (stereo unspecified) | inconclusive: 79.4 µM [inhibitor, single point] |  |
| COc1ccc(C[C@H]2NC[C@H](O)[C@@H]2OC(C)=O)cc1 | active: 35.5 µM |  |
| CC(=O)[C@H]1CCC2C3CC=C4C[C@@H](OS(=O)(=O)O)CC[C@]4(C)C3CC[C@@]21C (stereo partly specified) | inconclusive: 50.1 µM [inhibitor, partial curve] |  |
| CN1CCN(C(=O)COc2ccc(Oc3ccccc3)cc2)CC1 | inconclusive: 89.1 µM [inhibitor, single point] |  |
| O=C1NC(=S)NC(=O)C12C(c1ccccc1)NC(=S)NC2c1ccccc1 (stereo unspecified) | inconclusive: 31.6 µM [inhibitor, single point] |  |
| Cn1cc(/C=C(\C(=O)O)C(C(=O)O)=C2CCCCC2)c2ccccc21 | inconclusive: 39.8 µM [inhibitor, single point] |  |
| CN1C(=O)C(=Cc2c(OCc3cnc(Cl)s3)ccc3ccccc23)C(=O)N(C)C1=O | inconclusive: 89.1 µM [inhibitor, single point] |  |
| CCCCC/C=C\C/C=C\C/C=C\C/C=C\CCCC(=O)NCCO | active: 70.8 µM |  |
| CN1C(=O)N(C)C(=O)C2(Cc3cc(NC(=O)c4ccc(F)cc4)ccc3N3CCCC32)C1=O (stereo unspecified) | inconclusive: 79.4 µM [inhibitor, single point] |  |
| O=c1[nH]c(=O)n(CCC2=CCCCC2)c(O)c1/C=N/Nc1ccccc1 | inconclusive: 63.1 µM [inhibitor, partial curve, poor fit] |  |
| O=C(O)COc1ccc(/C=C2/SC(=S)N(Cc3ccccc3)C2=O)cc1 | inconclusive: 56.2 µM [inhibitor, partial curve, poor fit] |  |
| C=CCN1C(=O)NC(=O)/C(=C\c2ccc(-c3ccccc3[N+](=O)[O-])o2)C1=O | active: 17.8 µM |  |

| SMILES | Potency | max response, negative = inhibition |
| --- | --- | --- |
| COc1cccc(-n2c(/C=C\c3ccc(Cl)cc3)nc3ccccc3c2=O)c1 | inconclusive: 89.1 µM [inhibitor, partial curve, poor fit] |  |
| CCc1ccc(N2C(=O)NC(=O)/C(=C\c3cccn3CCOc3ccc(C(C)C)cc3)C2=O)cc1 | inconclusive: 79.4 µM [inhibitor, single point] |  |
| Cn1c(=O)c2c(nc(N/N=C/c3c(O)n(C4CCCCC4)c(=S)[nH]c3=O)n2C)n(C)c1=O | inconclusive: 31.6 µM [inhibitor, full curve] |  |
| Cc1cc(C=C2C(=O)NC(=S)NC2=O)c(C)n1-c1ccc2c(c1)OCO2 | active: 70.8 µM |  |
| N#CCCn1cc(C(=O)Nc2ccccc2Br)c(-c2ccc3c(c2)OCCO3)n1 | inconclusive: 5.01 µM [inhibitor, full curve, poor fit] |  |
| CN(C)C(=S)SSC(=S)N(C)C | active: 11.2 µM and active: 2.51 µM | inactive: 2.16% |
| O=C1C=CC(=O)c2c1ccc1c2ccc2ccccc21 | active: 3.16 µM |  |
| Cc1ccc(N2C(=O)NC(=O)/C(=C/C=C/c3ccco3)C2=O)cc1 | active: 25.1 µM |  |
| CCS(=O)(=O)Nc1ccc(C2=NN(C(=O)c3ccco3)C(c3ccc(Cl)o3)C2)cc1 (stereo unspecified) | inconclusive: 79.4 µM [inhibitor, single point] |  |
| O=C(O)c1cc(Oc2ccc([N+](=O)[O-])cc2)cc(Oc2ccc([N+](=O)[O-])cc2)c1 | active: 44.7 µM |  |
| CC/C(=N\NC(=O)c1ccccc1Cl)c1c(O)n(C2CCCCC2)c(=O)[nH]c1=O |  | inactive: 3.61% |
| N#CC(C#N)=Cc1ccc(C=C(C#N)C#N)cc1 | inconclusive: 17.8 µM [inhibitor, full curve, poor fit] |  |
| CC(C)C1C(=O)N2CCC[C@H]2[C@]2(O)O[C@](NC(=O)[C@@H]3C=C4c5cccc6[nH]cc(c56)C[C@H]4N(C)C3)(C(C)C)C(=O)N12 (stereo partly specified) | active: 44.7 µM |  |
| O=C1NC(=S)NC(=O)C1=Cc1c(Cl)cccc1Cl | active: 15.8 µM |  |
| O=C1NC(=O)N(Cc2ccccc2)C(=O)C1Cc1ccccc1 (stereo unspecified) | inconclusive: 89.1 µM [inhibitor, single point] |  |
| CCOc1ccc(N2C(=O)NC(=O)/C(=C/c3cnc(SC)nc3)C2=O)cc1 | active: 39.8 µM |  |
| C[C@@H]1O[C@@H](O[C@H]2CC[C@@H](O[C@H]3[C@H](O)C[C@H](c4ccc5c(c4O)C(=O)C4=C(C5=O)[C@@]5(O)C(=O)C[C@](C)(O[C@H]6CC[C@H](O[C@H]7C=CC(=O)[C@H](C)O7)[C@H](C)O6)C[C@@]5(O)C=C4)O[C@@H]3C)O[C@H]2C)C=CC1=O | active: 2 µM |  |
| COc1cc2c(c(OC)c1OC)-c1ccc(O)c(=O)cc1[C@@H](NC(C)=O)CC2 |  | inactive: -17.3% |
| CCOC(=O)COc1ccc(/C=C2\C(=O)NC(=S)N(c3ccc(OC)cc3)C2=O)cc1OC | active: 44.7 µM |  |
| C[C@]12C=CC(=O)C=C1CC[C@@H]1C2=CC[C@]2(C)[C@@H](C(=O)CN3CCN(c4cc(N5CCCC5)nc(N5CCCC5)n4)CC3)CC[C@@H]12 | active: 28.2 µM and active: 2.82 µM |  |

| SMILES | Potency | max response, negative = inhibition |
| --- | --- | --- |
| CCCCNC(=O)c1c(N)n(Cc2ccc3c(c2)OCO3)c2nc3ccccc3nc12 | inconclusive: 31.6 µM [inhibitor, full curve] |  |
| CCOP(=S)(OCC)Oc1cc(C)nc(N(CC)CC)n1 | inconclusive: 56.2 µM [inhibitor, partial curve, poor fit] |  |
| COc1ccc(CN2CCCC(C(=O)c3sccc3C)C2)cc1O (stereo unspecified) |  | inactive: -3.3% |
| O=C1NC(=S)NC(=O)C1=Cc1cccn1-c1ccc(O)cc1 | active: 25.1 µM |  |
| Cc1ccc(N2C(=O)NC(=O)/C(=C\c3cnc(-c4ccccc4)nc3)C2=O)cc1 | active: 22.4 µM |  |
| O=C1NC(=S)NC(=O)C1Cc1ccccc1 | inconclusive: 79.4 µM [inhibitor, single point] |  |
| Cc1cc(Cc2c(O)[nH]c(=S)[nH]c2=O)ccc1OC(C)C | active: 79.4 µM |  |
| Cc1nc2c(=O)n(C)c(=O)nc-2n(C)n1 | inconclusive: 70.8 µM [inhibitor, partial curve] |  |
| CCCN1CCc2cc(O)cc3c2[C@H]1Cc1ccc(O)c(O)c1-3 | active: 5.01 µM |  |
| CN(C)c1ccc(C=C2C(=O)NC(=S)NC2=O)cc1 | inconclusive: 56.2 µM [inhibitor, partial curve, poor fit] |  |
| Cc1c(C=C2C(=O)N(C)C(=S)N(C)C2=O)c2ccccc2n1CC(=O)NCC1CCCO1 (stereo unspecified) | inconclusive: 17.8 µM [inhibitor, full curve, poor fit] |  |
| COc1cc([N+](=O)[O-])c2nc(C)ccc2c1[N+](=O)[O-] |  | inactive: -9.79% |
| Cc1ccc(S(=O)(=O)Oc2ccccc2C=C2C(=O)N(C)C(=O)N(C)C2=O)cc1 | inconclusive: 50.1 µM [inhibitor, partial curve, poor fit] |  |
| C=C1C(=O)O[C@@H]2C[C@@H](C)[C@@H]3C=CC(=O)[C@@]3(C)[C@@H](OC(=O)CC(=O)O[C@H]3[C@@H]4C(=C)C(=O)O[C@@H]4C[C@@H](C)[C@@H]4C=CC(=O)[C@]43C)[C@H]12 | active: 17.8 µM |  |
| CCCN1C[C@H](C)N([C@H](c2ccc(C(=O)N(CC)CC)cc2)c2cccc(OC)c2)C[C@H]1C | inconclusive: 89.1 µM [inhibitor, single point] |  |
| CCOC(=O)CCCc1cc[c]([Sb](=[O])([OH])[OH])cc1 | inconclusive: 50.1 µM [inhibitor, partial curve, poor fit] |  |
| Cc1oc(-c2ccc(Cl)cc2)nc1CS(=O)CC(=O)N1CCC2(CC1)OCCO2 (stereo unspecified) |  | inactive: -13.3% |
| O=C1C(=O)c2ccccc2-c2ccccc21 | active: 10 µM |  |
| CC(C)=CCCC1(C)C=Cc2c(O)c3c(c(CC=C(C)C)c2O1)OC12C(=CC4CC1C(C)(C)OC2(C/C=C(/C)C(=O)O)C4O)C3=O (stereo unspecified) | active: 2.82 µM |  |
| CCN(C[C@H]1N[C@@](C)(C(=O)OC)[C@H]2C(=O)N(Cc3ccccc3)C(=O)[C@@H]12)S(=O)(=O)c1ccc(C)cc1 | inconclusive: 100 µM [inhibitor, partial curve, poor fit] |  |

Exported with tabs: part of the list above.
SMILES	Potency	max response, negative = inhibition
Cc1cc(Cc2c(O)[nH]c(=S)[nH]c2=O)ccc1OC(C)C	active: 79.4 µM	
Cc1nc2c(=O)n(C)c(=O)nc-2n(C)n1	inconclusive: 70.8 µM [inhibitor, partial curve]	
CCCN1CCc2cc(O)cc3c2[C@H]1Cc1ccc(O)c(O)c1-3	active: 5.01 µM	
CN(C)c1ccc(C=C2C(=O)NC(=S)NC2=O)cc1	inconclusive: 56.2 µM [inhibitor, partial curve, poor fit]	
Cc1c(C=C2C(=O)N(C)C(=S)N(C)C2=O)c2ccccc2n1CC(=O)NCC1CCCO1 (stereo unspecified)	inconclusive: 17.8 µM [inhibitor, full curve, poor fit]	

— PubChem BioAssay AID504847 (National Center for Advancing Translational Sciences (NCATS), 2011)
